Source: article PMC7376950
Results are given in words; binding and its absence hold for the method and conditions named. In cells and extracts the contact can be indirect. Some results given as binding are weak or reduced against the parent protein; the word gives no strength. Tags and fused reporters may be left off the sequences shown.

The chains behind the UniProt entries cited, without tags or fusion partners.
UniProt P48432: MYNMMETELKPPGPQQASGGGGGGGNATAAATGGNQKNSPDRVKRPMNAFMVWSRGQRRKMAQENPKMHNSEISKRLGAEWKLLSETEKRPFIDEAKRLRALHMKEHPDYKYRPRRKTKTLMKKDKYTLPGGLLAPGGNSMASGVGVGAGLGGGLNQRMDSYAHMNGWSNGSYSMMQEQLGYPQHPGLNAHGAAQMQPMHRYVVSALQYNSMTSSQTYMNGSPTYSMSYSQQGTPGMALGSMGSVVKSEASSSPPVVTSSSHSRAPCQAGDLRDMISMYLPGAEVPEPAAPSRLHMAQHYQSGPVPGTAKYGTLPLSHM

Target: T1, Ddx56-GST (full-length mouse DEAD-box helicase 56, GST-tagged) (mouse) (UniProt Q9D0R4)
T1 sequence: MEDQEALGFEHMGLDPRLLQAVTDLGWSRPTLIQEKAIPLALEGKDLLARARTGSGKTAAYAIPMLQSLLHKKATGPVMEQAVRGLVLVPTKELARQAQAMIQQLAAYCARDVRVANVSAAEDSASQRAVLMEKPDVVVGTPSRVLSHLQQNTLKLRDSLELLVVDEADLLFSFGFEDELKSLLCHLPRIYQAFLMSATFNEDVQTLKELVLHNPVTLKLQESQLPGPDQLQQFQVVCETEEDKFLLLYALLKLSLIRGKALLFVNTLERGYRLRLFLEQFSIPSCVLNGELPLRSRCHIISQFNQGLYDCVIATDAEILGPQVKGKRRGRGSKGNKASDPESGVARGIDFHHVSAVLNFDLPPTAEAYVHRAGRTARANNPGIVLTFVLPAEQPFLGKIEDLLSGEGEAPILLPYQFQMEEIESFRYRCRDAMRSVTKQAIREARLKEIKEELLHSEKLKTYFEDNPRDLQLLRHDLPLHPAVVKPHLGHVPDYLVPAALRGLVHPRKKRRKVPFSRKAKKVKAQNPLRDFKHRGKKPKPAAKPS
Assay: pull-down; GST-tagged bait and SFB- or HA-tagged prey cotransfected into 293T cells; lysis in 1x NETN buffer (40 mM Tris-HCl pH 8.0, 100 mM NaCl, 0.5% NP40, 1 mM EDTA, 10% glycerol); Glutathione Sepharose 4B, 4 h at 4 °C; western blot (the paper also calls it co-IP)

Substance | binding
Sox2-HA (from UniProt P48432 1-319) | binds
Sox2-SFB (from UniProt P48432 1-319) | binds
